Test results from patent US4380512A, “2β-Chloromethyl-2α-methylpenam-3α-carboxylic acid sulfone and salts and esters thereof” (Bristol-Myers Company, priority 1981, dated 1983).

Legend:
in vivo [1] = details: mouse, po, 38 mg/kg
Source text: Compounds were solubilized in propylene glycol, except for the Hetacillin

in vivo [2] = details: mouse, po, 38 mg/kg, Blood Level

CC1(CCl)C(C(=O)O)N2C(=O)CC2S1(=O)=O (stereo not drawn) [BL-P2013, Potassium 2β-Chloromethyl-2α-methylpenam-3α-carboxylate Sulfone]
concentration at 1 h (in vivo [1]): 2100 ng/mL
concentration at 1 h (in vivo [2]): 2100 ng/mL
